# Assay results taken from PubChem BioAssay AID330 (DTP/NCI, 2004).
# The list is a part of this screen's results and no random one: it is rich in T/C values a quarter to a half above the control, in often repeated tests (any T/C) and in doses without a T/C. Further doses and runs are listed elsewhere. T/C: endpoint of the treated group in % of that of the vehicle group. Some doses have a count of surviving animals in place of a T/C: the source holds a T/C of zero for them, seemingly a mark for toxic or unscored doses. Some survivor counts are full or nearly so, which does not show that the dose was tolerated: the source hardly ever lists a survival T/C far under the control, and the zero likely stands for such cases as well. Survivors were counted at the toxicity check, usually on the fifth day, unless a day is given; later deaths do not show. Schedules are NCI's codes, read here as Q, the interval in days (D) or hours (H), X, the number of doses. Some entries hold several experiments; the results are listed from low to high. Where survival is the endpoint, the PubChem record calls one and a half times the control and up active, and a quarter to a half above the control has no call in these data; cut-offs in other NCI protocols can differ. Some T/C values are followed by the survivors on the day toxicity was checked, most often the fifth; without a count, all were alive then.
# System: P388 leukemia ip, CD2F1 mice, survival T/C
# Test: NCI In Vivo Anticancer Drug Screen. Data for tumor model P388 Leukemia (intraperitoneal) in CD2F1 (CDF1) mice
# Conditions: T/C endpoint: median survival time, higher T/C = longer survival
# [1] = dose: 100.0 mg/kg/injection, schedule: Q01DX009 (ip), vehicle: saline with Tween-80
# [2] = dose: 12.5 mg/kg/injection, schedule: Q01DX009 (ip), vehicle: saline with Tween-80
# [3] = dose: 100.0 mg/kg/injection, schedule: Q01DX005 (ip), vehicle: saline with Tween-80
# [4] = dose: 200.0 mg/kg/injection, schedule: Q01DX005 (ip), vehicle: saline with Tween-80
# [5] = dose: 200.0 mg/kg/injection, schedule: Q01DX005 (ip), vehicle: saline
# [6] = dose: 25.0 mg/kg/injection, schedule: Q01DX009 (ip), vehicle: saline with Tween-80
# [7] = dose: 50.0 mg/kg/injection, schedule: Q01DX009 (ip), vehicle: saline with Tween-80
# [8] = dose: 200.0 mg/kg/injection, schedule: Q01DX009 (ip), vehicle: saline with Tween-80
compound,measurement,setting,value
Cc1nc(N)nc(N)c1N1CCN(c2ccc(C(=O)NC(CCC(=O)O)C(=O)O)cc2)CC1 (stereo unspecified),T/C,"dose: 3.12 mg/kg/injection, schedule: Q01DX005 (ip), vehicle: distilled water + Tween-80",132 % of control
same,T/C,"dose: 3.12 mg/kg/injection, schedule: Q01DX005 (ip), vehicle: water",125 % of control
same,T/C,"dose: 6.25 mg/kg/injection, schedule: Q01DX005 (ip), vehicle: distilled water + Tween-80",137 % of control
same,T/C,"dose: 6.25 mg/kg/injection, schedule: Q01DX005 (ip), vehicle: water",131 % of control
same,survivor count,"dose: 50.0 mg/kg/injection, schedule: Q01DX005 (ip), vehicle: distilled water + Tween-80",6 of 6
CS(=O)(=O)OCC(=O)NCC(O)CNC(=O)COS(C)(=O)=O,T/C,[1],141 % of control
same,T/C,"dose: 100.0 mg/kg/injection, schedule: Q04DX003 (ip), vehicle: saline with Tween-80",127 % of control
same,T/C,"dose: 264.0 mg/kg/injection, schedule: Q04DX003 (ip), vehicle: saline with Tween-80",129 % of control
same,survivor count,"dose: 400.0 mg/kg/injection, schedule: Q01DX009 (ip), vehicle: saline with Tween-80",5 of 6
same,survivor count,"dose: 600.0 mg/kg/injection, schedule: Q04DX003 (ip), vehicle: saline with Tween-80",6 of 6
O=c1c2cnccc2cc2n1CCc1c-2[nH]c2ccccc12,survivor count,[2],6 of 6
CCn1c(=N)sc2nc3ccccc3n2c1=O,survivor count,"dose: 240.0 mg/kg/injection, schedule: Q01DX005 (ip), vehicle: Klucel (hydroxypropylcellulose) (HPC)",1 of 6
NC(=S)N/N=C1/C(=O)N(C2CCCCCC2)C(=O)C1C(=O)NC1CCCCCC1 (stereo unspecified),survivor count,[3],1 of 6
same,survivor count,[4],0 of 6
O=[N+]([O-])c1cnc(Oc2ccccc2[N+](=O)[O-])nc1,survivor count,"dose: 50.0 mg/kg/injection, schedule: Q01DX009 (ip), vehicle: Klucel (hydroxypropylcellulose) (HPC)",6 of 6
same,survivor count,"dose: 200.0 mg/kg/injection, schedule: Q01DX009 (ip), vehicle: Klucel (hydroxypropylcellulose) (HPC)",3 of 6
O=C1NC(=O)C2C3CCC(C12)C1C2C(=O)NC(=O)C2C31 (stereo unspecified),survivor count,[3],2 of 6
same,survivor count,[4],1 of 6
Nc1ccc2nc[nH]c2c1,survivor count,"dose: 200.0 mg/kg/injection, schedule: Q04DX002 (ip), vehicle: Klucel (hydroxypropylcellulose) (HPC)",4 of 6
same,survivor count,"dose: 400.0 mg/kg/injection, schedule: Q04DX002 (ip), vehicle: Klucel (hydroxypropylcellulose) (HPC)",0 of 6
CC(=O)NCCSSSCCNC(C)=O,survivor count,[5],2 of 5
CCN(CC)CCSSCCN(CC)CC.[Cl][Mn][Cl],survivor count,"dose: 200.0 mg/kg/injection, schedule: Q01DX005 (ip), vehicle: Klucel (hydroxypropylcellulose) (HPC)",0 of 6
CCCC(=O)N1CCCCC1CC (stereo unspecified),survivor count,"dose: 400.0 mg/kg/injection, schedule: Q01DX001 (ip), vehicle: saline",3 of 6
COc1cc(C)c2nc3c(C)c(Cl)ccc3c(Cl)c2c1,survivor count,"dose: 12.5 mg/kg/injection, schedule: Q01DX005 (ip), vehicle: Klucel + Tween-80",6 of 6
same,survivor count,"dose: 25.0 mg/kg/injection, schedule: Q01DX005 (ip), vehicle: Klucel + Tween-80",6 of 6
same,survivor count,"dose: 50.0 mg/kg/injection, schedule: Q01DX005 (ip), vehicle: Klucel + Tween-80",6 of 6
same,survivor count,"dose: 100.0 mg/kg/injection, schedule: Q01DX005 (ip), vehicle: Klucel + Tween-80",6 of 6
same,survivor count,"dose: 200.0 mg/kg/injection, schedule: Q01DX005 (ip), vehicle: Klucel + Tween-80",6 of 6
C=C1C(=O)C23C(OC(=O)CCCCCCCCCCCCC)C1CCC2C12COC3(O)C(O)C1C(C)(C)CCC2O (stereo unspecified),survivor count,"dose: 30.0 mg/kg/injection, schedule: Q01DX009 (ip), vehicle: saline with Tween-80",5 of 6
Nc1ccc(O)cc1O,survivor count,"dose: 25.0 mg/kg/injection, schedule: Q01DX009 (ip), vehicle: saline",3 of 6
same,survivor count,"dose: 50.0 mg/kg/injection, schedule: Q01DX009 (ip), vehicle: saline",1 of 6
same,survivor count,"dose: 100.0 mg/kg/injection, schedule: Q01DX009 (ip), vehicle: saline",0 of 6
same,survivor count,"dose: 200.0 mg/kg/injection, schedule: Q01DX009 (ip), vehicle: saline",0 of 6
same,survivor count,"dose: 400.0 mg/kg/injection, schedule: Q01DX009 (ip), vehicle: saline",0 of 6
same,survivor count,"dose: 600.0 mg/kg/injection, schedule: Q01DX009 (ip), vehicle: saline",0 of 6
COc1cc(N(CC(C)Br)CC(C)Br)ccc1N=Nc1ccccc1C(=O)O (stereo unspecified),T/C,"dose: 1.56 mg/kg/injection, schedule: Q01DX009 (ip), vehicle: saline with Tween-80",146 % of control
same,T/C,"dose: 6.25 mg/kg/injection, schedule: Q01DX009 (ip), vehicle: saline with Tween-80","175, 191, 220, 236 % of control"
same,T/C,[2],"120, 230, 262 % of control [5 of 6 alive]"
same,survivor count,[2],5 of 6
same,survivor count,[6],2 of 6 and 5 of 6
same,survivor count,[7],0 of 6
same,survivor count,[1],0 of 6
same,survivor count,[8],0 of 6
Nc1nc2ccccc2[nH]1,survivor count,"dose: 320.0 mg/kg/injection, schedule: Q04DX003 (ip), vehicle: other",0 of 10
same,survivor count,"dose: 320.0 mg/kg/injection, schedule: Q04DX003 (oral), vehicle: other",6 of 10
same,survivor count,"dose: 640.0 mg/kg/injection, schedule: Q04DX003 (ip), vehicle: other",0 of 10
same,survivor count,"dose: 640.0 mg/kg/injection, schedule: Q04DX003 (oral), vehicle: other",0 of 10
O=C(O)Cc1ccc(N2N=C(c3ccccc3)CC2=O)cc1,survivor count,"dose: 240.0 mg/kg/injection, schedule: Q01DX005 (ip), vehicle: saline with Tween-80",6 of 6
c1ccc(C2=NC3CCCC[C@H]3O2)cc1 (stereo partly specified),survivor count,"dose: 120.0 mg/kg/injection, schedule: Q01DX005 (ip), vehicle: saline with Tween-80",2 of 6
CN(C)CCCOc1ccc(NC2=C(Cl)C(=O)C(Nc3ccc(OCCCN(C)C)cc3)=C(Cl)C2=O)cc1,survivor count,"dose: 50.0 mg/kg/injection, schedule: Q01DX005 (ip), vehicle: saline",1 of 5
same,survivor count,"dose: 100.0 mg/kg/injection, schedule: Q01DX005 (ip), vehicle: saline",0 of 5
same,survivor count,[5],0 of 5
CC(=O)Nc1[c-]cccc1.CC(=O)Nc1[c-]cccc1.CC(=O)O.CC(=O)O.[Pd].[Pd],T/C,"dose: 50.0 mg/kg/injection, schedule: Q01DX005 (ip), vehicle: saline with Tween-80",128 % of control
same,survivor count,[3],0 of 6
same,survivor count,[4],0 of 6
CC(C)OC(=S)S.[Pb],T/C,"dose: 16.5 mg/kg/injection, schedule: Q01DX009 (ip), vehicle: saline with Tween-80",147 % of control
same,T/C,[6],133 and 146 % of control [5 of 6 alive]
same,T/C,"dose: 37.5 mg/kg/injection, schedule: Q01DX009 (ip), vehicle: saline with Tween-80",128 % of control [5 of 6 alive]
same,survivor count,[7],3 of 6
same,survivor count,[1],0 of 6
same,survivor count,[8],4 of 6
